Record: PubChem BioAssay AID504786 (Drosophila RNAi Screening Center, 2011)

Test: 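Fly genes required for HIF-dependent transcription when hypoxia is mimicked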 (primary screen)
Cell system: Drosophila S2 cells with a stable HIF luciferase reporter
Knock-down reagent: long dsRNA against Drosophila genes, about 0.2 µg dsRNA per well of a 384-well plate
Time to read-out: three days of knock-down, then 20 h of DFO before reading
Challenge: desferrioxamine (DFO) at 100 µM, an iron chelator that mimics hypoxia, for 20 h
Read-out: 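Firefly luciferase driven by the mouse ldh-a hypoxia-response element, measured after 20 h of 100 µM DFO; z-scores per plate, higher means more signal lost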
Direction: z-score: higher = stronger loss of HIF reporter signal
The deposit covers about 21,000 reagents; this is an unselected part of those that have a named target and a result. 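Primary screen; positive scores mean lost reporter signal, so the sign may be inverted from the usual convention.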 Names joined by + are all predicted targets of the reagent. Further read-outs or replicates are left out here. Reagent sequences are not shown.

Target gene | dsRNA | z-score, replicate 1 | z-score, replicate 2 | z-score, replicate 3
CG14764 | DRSC05072 | 0.2 | 0 | –
CG14764 | DRSC06498 | -0.2 | -0.4 | –
CG14764 | DRSC06844 | -0.3 | -0.4 | –
pad | DRSC14227 | -0.4 | -0.2 | –
ball | DRSC14145 | -0.6 | -0.7 | –
CG4709 | DRSC02772 | -0.4 | -1.1 | –
CG10513 | DRSC14248 | -0.2 | 0.2 | –
mbm | DRSC00319 | -0.3 | -0.4 | –
cindr | DRSC14126 | -0.2 | -0.3 | –
cindr | DRSC14298 | -0.2 | -0.4 | –
Psf2 | DRSC00516 | 0.4 | -0.1 | –
CG4956 | DRSC15683 | -0.2 | -0.4 | –
CG12061 | DRSC20715 | 0 | -0.6 | –
CG31862 | DRSC01245 | 0.3 | 0.4 | –
Rgk1 (retired record) | DRSC07343 | -0.2 | -0.5 | –
Rgk1 (retired record) | DRSC07344 | 3.5 | 2.7 | –
CG32428 | DRSC11697 | 2 | 2 | –
CG32428 | DRSC11768 | -0.1 | -0.1 | –
CG31816 | DRSC01547 | 0.5 | 0.5 | –
grass | DRSC15911 | -0.2 | -0.3 | –
Top3beta | DRSC18724 | -0.3 | -0.5 | –
CG7222 | DRSC07019 | -0.4 | -0.5 | –
CG43736 + CG33692 (retired record) | DRSC18370 | -0.6 | -0.8 | –
CG43736 + CG33692 (retired record) | DRSC18371 | -0.3 | -0.5 | –
CG5071 | DRSC15710 | -0.2 | 0.2 | –
Alg2 | DRSC08298 | -0.2 | 0.1 | –
CG31211 | DRSC14953 | -0.4 | -0.4 | -0.2
CG31211 | DRSC15344 | -0.3 | -0.2 | –
CG13306 | DRSC09976 | -0.3 | -0.3 | –
CG9316 | DRSC03195 | -0.2 | -0.2 | –
GILT1 | DRSC16565 | -0.3 | -0.2 | –
CR32745 | DRSC17442 | -0.1 | -0.1 | –
hmw | DRSC16277 | -0.2 | -0.5 | –
Br140 | DRSC06755 | 1.2 | 0.1 | –
CG15252 | DRSC17981 | -0.2 | -0.9 | –
jet | DRSC03116 | -0.3 | -0.4 | –
SmE | DRSC02680 | 6.8 | 5.6 | –
Alms1a | DRSC18558 | -0.2 | -0.4 | –
Pxd | DRSC16805 | -0.4 | 1 | –
CG12863 | DRSC06203 | -0.3 | -0.7 | –
Scsalpha1 | DRSC08698 | 0.1 | 0 | –
nAChRalpha1 | DRSC13664 | 0.1 | -0.3 | –
nAChRalpha1 | DRSC13670 | 8.1 | 3.3 | –
nAChRalpha1 | DRSC13672 | -0.4 | -0.4 | –
nAChRalpha1 | DRSC17008 | -0.5 | -0.2 | –
RpS28b | DRSC18258 | 4.6 | 4.6 | –
CG3662 | DRSC00626 | -0.2 | -0.3 | –
CG12069 | DRSC14470 | -0.3 | -0.3 | –
CG11370 | DRSC11653 | 0 | -0.2 | –
CG5180 | DRSC15731 | -0.2 | -0.4 | –
CG12017 | DRSC08225 | -0.2 | -0.4 | –
CG15760 | DRSC19725 | -0.2 | -0.2 | –
CG32462 | DRSC11851 | -0.3 | -0.6 | –
muskelin | DRSC07273 | -0.2 | -0.2 | –
CG8564 | DRSC10997 | -0.3 | -0.3 | –
Prx6c + CG12896 + Prx6b | DRSC06148 | -0.3 | -0.2 | –

Just “z-score, replicate 2”, for 7 of the entries above:
Rgk1 (retired record) [DRSC07344] = 2.7
CG32428 [DRSC11697] = 2
CG32428 [DRSC11768] = -0.1
CG31816 [DRSC01547] = 0.5
grass [DRSC15911] = -0.3
Top3beta [DRSC18724] = -0.5
CG7222 [DRSC07019] = -0.5
